This experiment deals with She2p-Myc (ΔhE) (Saccharomyces cerevisiae) (UniProt P36068). As to the kind of experiment: co-IP; anti-Myc antibody (9E11) on magnetic Protein G beads precipitates She2p-Myc from yeast (she2Δ background); Western blot against HA-tagged She3p; two independent blots quantified. In general terms: A western blot detects proteins with antibodies after separation by electrophoresis.

Protein sequences, listed by entry. Tags and fused reporters are not part of them. Lines headed by an entry give the natural chain unless they say otherwise; changes in a name come on top.
UniProt P36068: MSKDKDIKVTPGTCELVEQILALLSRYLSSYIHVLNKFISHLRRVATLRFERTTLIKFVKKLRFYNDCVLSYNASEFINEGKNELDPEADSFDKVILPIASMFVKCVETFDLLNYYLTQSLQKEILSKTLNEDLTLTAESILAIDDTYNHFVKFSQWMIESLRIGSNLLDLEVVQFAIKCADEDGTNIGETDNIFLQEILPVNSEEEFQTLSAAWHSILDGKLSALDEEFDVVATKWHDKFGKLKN

Results are given in words; binding and its absence hold for the method and conditions named. In cells and extracts the contact can be indirect. Binding calls can cover weak binding; strength is not graded here. Sequences can lack the tags named with a protein.

B1: HA-tagged She3p (protein, UniProt P38272 1-425)
chain: MSDQDNTQTSSSKLAPHHNIFMANLESSPTKDRNTSSQNASSSRVIESLHDQIDMLTKTNLQLTTQSQNLLSKLELAQSKESKLLENLNLLKNENENLNSIFERKNKKLKELEKDYSELSNRYNEQKEKMDQLSKLAKNSSAIEQSCSEKLQNMEVNYNSLLESQNLYRDHYSDEISKLNEKIGLLELELSNQNLNYGSDTSSNSDIELNLNKFNDSVKDLKSLETEKDSKLSKIITHSLDELNLQSWLNLYQTNENLISTFAEKMDLKDVLKRNDEKISNKGAVVQTLKKNVQTQVESNNADALSSNNAQDMLPIKMVKLRKTPNTNDSSSNGNSSNNKRRSFYTASPLLSSGSIPKSASPVLPGVKRTASVRKPSSSSSKTNVTHNNDPSTSPTISVPPGVTRTVSSTHKKKGNSMVVHGAQS
As for B1, the binding result was “binds weakly”.
